Assay results as given in the supplement of paper PMC10849652.
This is one part of the list.

By UniProt entry, the sequences of proteins in these tests, tags left out. Where a name states a change or a piece, a line headed by the entry shows the natural chain unless it says otherwise.
UniProt O43447: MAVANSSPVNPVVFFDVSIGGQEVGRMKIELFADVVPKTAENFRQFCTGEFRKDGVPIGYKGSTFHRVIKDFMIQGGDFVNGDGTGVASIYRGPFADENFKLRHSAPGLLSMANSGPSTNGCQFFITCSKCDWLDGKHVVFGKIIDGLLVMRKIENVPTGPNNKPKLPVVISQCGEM
UniProt Q9HAB8: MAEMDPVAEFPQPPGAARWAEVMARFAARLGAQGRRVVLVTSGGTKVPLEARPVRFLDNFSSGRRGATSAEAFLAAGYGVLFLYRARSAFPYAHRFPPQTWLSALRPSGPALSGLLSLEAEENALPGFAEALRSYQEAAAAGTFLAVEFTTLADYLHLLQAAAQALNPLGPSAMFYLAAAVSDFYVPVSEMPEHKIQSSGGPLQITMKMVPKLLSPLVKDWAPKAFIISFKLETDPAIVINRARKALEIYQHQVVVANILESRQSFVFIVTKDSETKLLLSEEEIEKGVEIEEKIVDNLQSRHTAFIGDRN
UniProt P35813: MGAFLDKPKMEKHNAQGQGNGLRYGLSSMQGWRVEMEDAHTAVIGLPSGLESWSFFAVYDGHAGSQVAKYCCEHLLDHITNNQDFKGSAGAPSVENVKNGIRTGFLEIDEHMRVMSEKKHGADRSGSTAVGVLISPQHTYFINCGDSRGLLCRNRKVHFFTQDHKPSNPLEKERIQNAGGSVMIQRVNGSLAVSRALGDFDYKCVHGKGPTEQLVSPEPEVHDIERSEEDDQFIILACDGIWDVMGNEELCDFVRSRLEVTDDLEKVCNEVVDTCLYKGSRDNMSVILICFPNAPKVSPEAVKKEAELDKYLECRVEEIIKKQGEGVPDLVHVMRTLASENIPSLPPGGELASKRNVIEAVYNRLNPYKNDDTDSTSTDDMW
UniProt Q15054: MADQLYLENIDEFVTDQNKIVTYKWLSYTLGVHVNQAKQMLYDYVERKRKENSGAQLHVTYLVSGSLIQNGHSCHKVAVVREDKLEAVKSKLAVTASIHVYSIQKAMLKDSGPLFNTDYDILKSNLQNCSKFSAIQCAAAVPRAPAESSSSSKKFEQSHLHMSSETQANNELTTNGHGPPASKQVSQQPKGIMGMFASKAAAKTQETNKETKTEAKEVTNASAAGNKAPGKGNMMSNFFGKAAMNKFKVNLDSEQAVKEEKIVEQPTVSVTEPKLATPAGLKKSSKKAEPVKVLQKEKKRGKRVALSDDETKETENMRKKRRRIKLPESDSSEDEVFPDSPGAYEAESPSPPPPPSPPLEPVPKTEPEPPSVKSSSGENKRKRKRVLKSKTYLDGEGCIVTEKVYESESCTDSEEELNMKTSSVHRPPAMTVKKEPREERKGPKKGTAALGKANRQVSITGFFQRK
UniProt P09884: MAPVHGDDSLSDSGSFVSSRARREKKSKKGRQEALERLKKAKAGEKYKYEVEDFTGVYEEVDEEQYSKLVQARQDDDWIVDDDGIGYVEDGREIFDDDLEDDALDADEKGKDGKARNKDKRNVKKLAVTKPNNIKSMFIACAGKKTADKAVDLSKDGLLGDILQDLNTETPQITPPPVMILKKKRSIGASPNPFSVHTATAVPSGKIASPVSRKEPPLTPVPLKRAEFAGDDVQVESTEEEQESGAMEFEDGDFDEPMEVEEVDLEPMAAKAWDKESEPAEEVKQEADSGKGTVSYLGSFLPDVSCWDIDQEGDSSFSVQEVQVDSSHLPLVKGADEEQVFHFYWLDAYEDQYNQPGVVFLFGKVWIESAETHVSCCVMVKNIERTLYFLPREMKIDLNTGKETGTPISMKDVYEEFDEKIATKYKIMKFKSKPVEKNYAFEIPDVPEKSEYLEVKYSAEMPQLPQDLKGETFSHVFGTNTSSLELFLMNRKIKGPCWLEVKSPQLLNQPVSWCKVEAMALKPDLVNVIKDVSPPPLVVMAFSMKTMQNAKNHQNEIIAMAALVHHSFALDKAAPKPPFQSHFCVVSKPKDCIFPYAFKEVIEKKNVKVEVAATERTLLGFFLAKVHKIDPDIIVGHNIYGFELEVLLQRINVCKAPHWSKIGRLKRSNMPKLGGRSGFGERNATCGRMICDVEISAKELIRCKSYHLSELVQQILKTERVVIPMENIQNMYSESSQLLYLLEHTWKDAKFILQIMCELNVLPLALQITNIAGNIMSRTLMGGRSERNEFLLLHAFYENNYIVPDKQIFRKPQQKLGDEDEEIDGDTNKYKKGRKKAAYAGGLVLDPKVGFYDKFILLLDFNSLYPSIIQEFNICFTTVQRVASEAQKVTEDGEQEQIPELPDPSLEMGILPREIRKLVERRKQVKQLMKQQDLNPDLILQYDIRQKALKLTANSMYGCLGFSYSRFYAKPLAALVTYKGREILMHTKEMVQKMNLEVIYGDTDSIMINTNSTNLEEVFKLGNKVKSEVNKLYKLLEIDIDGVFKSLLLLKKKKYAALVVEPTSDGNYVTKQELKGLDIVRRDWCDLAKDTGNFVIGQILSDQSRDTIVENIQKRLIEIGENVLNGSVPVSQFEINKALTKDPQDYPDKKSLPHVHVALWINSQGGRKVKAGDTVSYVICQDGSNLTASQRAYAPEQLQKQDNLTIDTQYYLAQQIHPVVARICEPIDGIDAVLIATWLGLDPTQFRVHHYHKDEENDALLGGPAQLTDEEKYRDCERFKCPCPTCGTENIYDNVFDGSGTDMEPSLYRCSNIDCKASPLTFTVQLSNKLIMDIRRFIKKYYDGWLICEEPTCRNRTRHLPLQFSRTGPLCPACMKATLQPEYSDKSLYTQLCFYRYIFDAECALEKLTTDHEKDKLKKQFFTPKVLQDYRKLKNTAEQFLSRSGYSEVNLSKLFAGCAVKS
UniProt Q13136: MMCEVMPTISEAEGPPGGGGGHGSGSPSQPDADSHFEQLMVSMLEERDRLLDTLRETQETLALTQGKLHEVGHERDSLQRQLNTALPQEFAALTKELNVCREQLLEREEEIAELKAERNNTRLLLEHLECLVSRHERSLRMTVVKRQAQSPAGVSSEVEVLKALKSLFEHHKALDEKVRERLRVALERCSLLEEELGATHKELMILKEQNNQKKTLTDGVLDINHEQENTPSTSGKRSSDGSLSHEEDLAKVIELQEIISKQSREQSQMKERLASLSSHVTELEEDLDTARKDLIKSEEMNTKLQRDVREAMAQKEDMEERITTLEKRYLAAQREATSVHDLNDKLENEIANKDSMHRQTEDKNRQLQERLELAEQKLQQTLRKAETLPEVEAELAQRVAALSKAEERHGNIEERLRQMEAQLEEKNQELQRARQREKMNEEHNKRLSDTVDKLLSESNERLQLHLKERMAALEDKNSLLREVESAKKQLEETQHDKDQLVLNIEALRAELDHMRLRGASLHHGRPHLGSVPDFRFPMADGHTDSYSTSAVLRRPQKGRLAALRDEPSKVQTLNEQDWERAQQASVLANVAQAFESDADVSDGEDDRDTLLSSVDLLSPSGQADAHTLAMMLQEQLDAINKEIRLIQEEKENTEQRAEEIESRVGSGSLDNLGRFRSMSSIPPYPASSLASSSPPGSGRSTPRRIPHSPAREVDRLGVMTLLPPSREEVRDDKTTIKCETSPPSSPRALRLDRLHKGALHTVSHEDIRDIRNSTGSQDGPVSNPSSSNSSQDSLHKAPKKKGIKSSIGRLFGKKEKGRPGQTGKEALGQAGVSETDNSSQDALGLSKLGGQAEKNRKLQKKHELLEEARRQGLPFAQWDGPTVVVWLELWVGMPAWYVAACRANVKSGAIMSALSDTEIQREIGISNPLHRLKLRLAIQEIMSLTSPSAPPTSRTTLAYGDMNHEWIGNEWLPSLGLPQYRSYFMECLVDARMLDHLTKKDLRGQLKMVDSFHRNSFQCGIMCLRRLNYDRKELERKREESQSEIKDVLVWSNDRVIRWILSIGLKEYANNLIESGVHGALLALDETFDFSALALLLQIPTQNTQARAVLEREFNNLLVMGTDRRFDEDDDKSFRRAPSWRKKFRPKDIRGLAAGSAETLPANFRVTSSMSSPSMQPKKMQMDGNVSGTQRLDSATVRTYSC
UniProt Q10713: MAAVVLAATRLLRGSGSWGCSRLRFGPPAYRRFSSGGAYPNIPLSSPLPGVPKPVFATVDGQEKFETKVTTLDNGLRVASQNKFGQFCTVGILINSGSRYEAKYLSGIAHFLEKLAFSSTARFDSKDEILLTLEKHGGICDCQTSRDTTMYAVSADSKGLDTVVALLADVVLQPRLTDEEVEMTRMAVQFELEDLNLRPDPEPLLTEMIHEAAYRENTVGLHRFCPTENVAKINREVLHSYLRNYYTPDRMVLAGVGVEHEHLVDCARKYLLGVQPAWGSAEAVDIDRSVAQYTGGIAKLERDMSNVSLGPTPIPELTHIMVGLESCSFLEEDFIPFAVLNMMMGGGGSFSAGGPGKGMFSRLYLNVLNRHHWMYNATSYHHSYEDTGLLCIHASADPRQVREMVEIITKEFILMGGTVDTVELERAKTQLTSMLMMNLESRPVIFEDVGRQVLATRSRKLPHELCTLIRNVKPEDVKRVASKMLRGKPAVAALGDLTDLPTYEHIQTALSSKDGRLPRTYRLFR
UniProt Q9Y244: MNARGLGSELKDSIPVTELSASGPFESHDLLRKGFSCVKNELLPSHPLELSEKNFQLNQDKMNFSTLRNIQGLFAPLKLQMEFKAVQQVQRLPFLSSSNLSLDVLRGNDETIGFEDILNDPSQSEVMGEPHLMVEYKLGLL
UniProt Q96CD2: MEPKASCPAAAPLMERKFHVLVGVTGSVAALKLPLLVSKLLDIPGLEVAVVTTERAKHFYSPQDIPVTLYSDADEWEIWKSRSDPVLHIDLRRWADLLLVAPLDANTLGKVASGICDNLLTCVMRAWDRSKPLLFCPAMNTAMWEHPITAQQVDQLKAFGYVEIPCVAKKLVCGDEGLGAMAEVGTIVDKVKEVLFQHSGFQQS
UniProt O15305: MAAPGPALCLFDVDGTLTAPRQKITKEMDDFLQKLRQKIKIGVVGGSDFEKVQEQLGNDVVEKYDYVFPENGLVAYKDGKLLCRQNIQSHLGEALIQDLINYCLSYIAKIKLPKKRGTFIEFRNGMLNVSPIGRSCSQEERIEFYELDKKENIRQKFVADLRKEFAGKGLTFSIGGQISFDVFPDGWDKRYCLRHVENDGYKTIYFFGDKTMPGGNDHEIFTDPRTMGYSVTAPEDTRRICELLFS
UniProt P13797: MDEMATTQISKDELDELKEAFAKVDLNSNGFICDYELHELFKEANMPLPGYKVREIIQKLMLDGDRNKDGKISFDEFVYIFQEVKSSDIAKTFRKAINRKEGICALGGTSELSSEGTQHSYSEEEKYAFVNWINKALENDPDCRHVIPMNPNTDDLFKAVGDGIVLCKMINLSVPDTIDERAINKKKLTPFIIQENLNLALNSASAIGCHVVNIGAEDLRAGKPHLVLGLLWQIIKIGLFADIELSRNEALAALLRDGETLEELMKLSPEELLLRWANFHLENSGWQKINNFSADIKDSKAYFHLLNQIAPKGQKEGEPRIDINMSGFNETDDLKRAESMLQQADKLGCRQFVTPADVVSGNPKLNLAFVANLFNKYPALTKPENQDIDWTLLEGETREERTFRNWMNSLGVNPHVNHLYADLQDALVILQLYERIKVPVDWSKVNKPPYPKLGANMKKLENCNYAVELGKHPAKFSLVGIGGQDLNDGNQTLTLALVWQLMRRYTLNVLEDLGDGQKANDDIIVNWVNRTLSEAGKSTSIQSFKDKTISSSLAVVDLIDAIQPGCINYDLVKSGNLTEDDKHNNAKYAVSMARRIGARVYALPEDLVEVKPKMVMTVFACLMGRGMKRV
UniProt Q02809: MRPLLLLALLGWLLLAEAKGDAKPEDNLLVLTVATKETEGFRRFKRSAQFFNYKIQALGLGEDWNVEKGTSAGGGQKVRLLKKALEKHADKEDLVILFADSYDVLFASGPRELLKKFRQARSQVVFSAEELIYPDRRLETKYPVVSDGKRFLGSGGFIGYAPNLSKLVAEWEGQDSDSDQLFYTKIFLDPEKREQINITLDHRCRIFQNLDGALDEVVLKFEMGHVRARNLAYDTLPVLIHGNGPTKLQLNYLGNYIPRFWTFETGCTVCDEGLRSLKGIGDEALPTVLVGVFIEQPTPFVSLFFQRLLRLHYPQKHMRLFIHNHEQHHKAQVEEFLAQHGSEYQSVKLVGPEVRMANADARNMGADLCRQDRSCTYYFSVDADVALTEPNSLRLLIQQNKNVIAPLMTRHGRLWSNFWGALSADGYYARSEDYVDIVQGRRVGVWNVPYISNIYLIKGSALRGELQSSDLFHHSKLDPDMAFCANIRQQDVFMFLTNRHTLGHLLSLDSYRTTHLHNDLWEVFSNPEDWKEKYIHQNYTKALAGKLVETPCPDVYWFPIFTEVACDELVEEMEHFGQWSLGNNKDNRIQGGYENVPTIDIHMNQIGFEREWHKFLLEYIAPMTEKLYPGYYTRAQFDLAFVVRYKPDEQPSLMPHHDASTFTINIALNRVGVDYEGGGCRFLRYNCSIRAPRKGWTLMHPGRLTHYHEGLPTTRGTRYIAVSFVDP
UniProt Q9Y2Y1: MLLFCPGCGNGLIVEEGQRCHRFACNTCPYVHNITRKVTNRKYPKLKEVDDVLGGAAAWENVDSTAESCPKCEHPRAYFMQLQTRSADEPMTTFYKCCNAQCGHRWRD

compound: CC1=C(C=C(C=C1)NC(=O)C2=CC(=CC=C2)C(C)(C)C#N)NC3=CC4=C(C=C3)N=CN(C4=O)C; test: log2 fold change, soluble protein after heating vs DMSO (PISA); higher = thermal stabilisation; K562 cells, 10 uM, 30 min; active = over 0.2 and 3.5 SD of the protein, either way, in both replicates (recomputed)
Procedure, shortened: (§1)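 Soluble protein was defined as the supernatant after 21,000xg for 90 min. It came from K562 cells at 2×10^6 cells/mL given 10 μM compound for 30 min, heated in aliquots for 3 min across 48°C-58°C, pooled, and extracted in PBS with 0.5% NP-40 at 4°C, and was quantified by TMTpro 16plex LC-MS/MS with equalised channel sums. Thermal stability against control samples, from duplicates, is reported as log2 fold change.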

Target | log2 fold change
POLR2M (UniProt P0CAP2) | inactive: 0.007
POLDIP3 (UniProt Q9BY77) | inactive: -0.011
PPIH (UniProt O43447) | inactive: 0.022
PPCS (UniProt Q9HAB8) | inactive: -0.028
PPM1A isoform 3 (UniProt P35813) | inactive: 0.013
POLR3B (UniProt Q9NW08) | inactive: 0.024
POLE3 (UniProt Q9NRF9) | inactive: -0.022
PPA1 (UniProt Q15181) | inactive: 0.073
POLD3 (UniProt Q15054) | inactive: -0.131
PPIL4 (UniProt Q8WUA2) | inactive: 0.006
POGLUT2 (UniProt Q6UW63) | inactive: -0.035
POLA1 (UniProt P09884) | inactive: -0.001
POP1 (UniProt Q99575) | inactive: 0.03
POLR1A (UniProt O95602) | inactive: -0.082
PPFIA2 (UniProt O75334) | inactive: 0.018
PPFIA1 (UniProt Q13136) | inactive: 0.011

Target | log2 fold change
POLR3A (UniProt O14802) | inactive: 0.139
PMPCA (UniProt Q10713) | inactive: 0.046
POLR3G (UniProt O15318) | inactive: -0.015
PLIN3 (UniProt O60664) | inactive: 0.003
POMP (UniProt Q9Y244) | inactive: 0.024
PPIP5K1 (UniProt Q6PFW1) | inactive: 0.082
PLSCR1 (UniProt O15162) | inactive: 0.13
PPCDC (UniProt Q96CD2) | inactive: 0.005
PMM2 (UniProt O15305) | inactive: -0.102
PLS3 (UniProt P13797) | inactive: -0.038
POTEF (UniProt A5A3E0) | inactive: -0.033
PLOD1 isoform 2 (UniProt Q02809) | inactive: 0.027
POLR3K (UniProt Q9Y2Y1) | inactive: -0.028
PNPLA8 (UniProt Q9NP80) | inactive: 0.001
POLR2B (UniProt P30876) | inactive: 0.009
PPIL1 (UniProt Q9Y3C6) | inactive: -0.002

compound: CC1=C(C=C(C=C1)NC(=O)C2=CC(=CC=C2)N(C)C)NC(=O)C3=CC=C(C=C3)O; test: as above
Procedure, shortened: as §1

Target | log2 fold change
POLR2M (UniProt P0CAP2) | inactive: -0.014
POLDIP3 (UniProt Q9BY77) | inactive: -0.01
PPIH (UniProt O43447) | inactive: -0.001
PPCS (UniProt Q9HAB8) | inactive: -0.013
PPM1A isoform 3 (UniProt P35813) | inactive: 0.01
POLR3B (UniProt Q9NW08) | inactive: -0.062
POLE3 (UniProt Q9NRF9) | inactive: 0.033
PPA1 (UniProt Q15181) | inactive: 0.01
POLD3 (UniProt Q15054) | inactive: -0.055
PPIL4 (UniProt Q8WUA2) | inactive: -0.02
POGLUT2 (UniProt Q6UW63) | inactive: -0.001
POLA1 (UniProt P09884) | inactive: -0.029
POP1 (UniProt Q99575) | inactive: -0.001
POLR1A (UniProt O95602) | inactive: -0.019
PPFIA2 (UniProt O75334) | inactive: -0.013
PPFIA1 (UniProt Q13136) | inactive: 0.03

Target | log2 fold change
POLR3A (UniProt O14802) | inactive: -0.033
PMPCA (UniProt Q10713) | inactive: -0.049
POLR3G (UniProt O15318) | inactive: -0.028
PLIN3 (UniProt O60664) | inactive: 0.04
POMP (UniProt Q9Y244) | inactive: 0.075
PPIP5K1 (UniProt Q6PFW1) | inactive: -0.024
PLSCR1 (UniProt O15162) | inactive: 0.06
PPCDC (UniProt Q96CD2) | inactive: -0.082
PMM2 (UniProt O15305) | inactive: 0.021
PLS3 (UniProt P13797) | inactive: 0.009
POTEF (UniProt A5A3E0) | inactive: 0.012
PLOD1 isoform 2 (UniProt Q02809) | inactive: -0.041
POLR3K (UniProt Q9Y2Y1) | inactive: 0.098
PNPLA8 (UniProt Q9NP80) | inactive: 0.026
POLR2B (UniProt P30876) | inactive: -0.044
PPIL1 (UniProt Q9Y3C6) | inactive: 0.023

compound: CC1=CC=C(C=C1)SC2=C3C=C(SC3=CN=C2)C(=O)N; test: as above
Procedure, shortened: as §1

Target | log2 fold change
POLR2M (UniProt P0CAP2) | inactive: 0.027
POLDIP3 (UniProt Q9BY77) | inactive: -0.027
PPIH (UniProt O43447) | inactive: -0.008
PPCS (UniProt Q9HAB8) | inactive: -0.011
PPM1A isoform 3 (UniProt P35813) | inactive: -0.012
POLR3B (UniProt Q9NW08) | inactive: -0.008
POLE3 (UniProt Q9NRF9) | inactive: -0.042
PPA1 (UniProt Q15181) | inactive: 0.007
POLD3 (UniProt Q15054) | inactive: 0.03
PPIL4 (UniProt Q8WUA2) | inactive: -0.06
POGLUT2 (UniProt Q6UW63) | inactive: -0.052
POLA1 (UniProt P09884) | inactive: -0.003
POP1 (UniProt Q99575) | inactive: 0.004
POLR1A (UniProt O95602) | inactive: -0.198
PPFIA2 (UniProt O75334) | inactive: -0.02
PPFIA1 (UniProt Q13136) | inactive: 0.019

Target | log2 fold change
POLR3A (UniProt O14802) | inactive: 0
PMPCA (UniProt Q10713) | inactive: 0.014
POLR3G (UniProt O15318) | inactive: 0.014
PLIN3 (UniProt O60664) | inactive: 0.036
POMP (UniProt Q9Y244) | inactive: -0.069
PPIP5K1 (UniProt Q6PFW1) | inactive: 0.003
PLSCR1 (UniProt O15162) | inactive: 0.025
PPCDC (UniProt Q96CD2) | inactive: 0.034
PMM2 (UniProt O15305) | inactive: -0.014
PLS3 (UniProt P13797) | inactive: 0.031
POTEF (UniProt A5A3E0) | inactive: 0.023
PLOD1 isoform 2 (UniProt Q02809) | inactive: -0.041
POLR3K (UniProt Q9Y2Y1) | inactive: 0
PNPLA8 (UniProt Q9NP80) | inactive: 0.007
POLR2B (UniProt P30876) | inactive: 0.041
PPIL1 (UniProt Q9Y3C6) | inactive: 0
